Measurements from paper PMC10693628, “Novel WYL domain-containing transcriptional activator acts in response to genotoxic stress in rapidly growing mycobacteria” (Communications Biology, 2023).

Experiments:
[1] = biological target: Sumo-SiwR ΔHTH (Mycobacterium smegmatis) (UniProt A0QS56); assay: EMSA; details: EMSA: 5 mM HEPES-KOH pH 7.0, 30 mM NaCl, 2.5% Ficoll 400K, 1% glycerol, 5 nM probe (10 nM in Fig. 2a legend), 37 °C 15 min; recombinant protein; protein details: His6-TEV-Sumo N-terminal fusion; label: 5'-FAM on strand 2
[2] = biological target: T1, Sumo-SiwR (Mycobacterium smegmatis) (UniProt A0QS56); assay: EMSA; details: EMSA: 5 mM HEPES-KOH pH 7.0, 30 mM NaCl, 2.5% Ficoll 400K, 1% glycerol, 5 nM probe (10 nM in Fig. 2a legend), 37 °C 15 min; recombinant protein; protein details: His6-TEV-Sumo N-terminal fusion; label: 5'-FAM on strand 1
T1 sequence (looked up, limits assumed): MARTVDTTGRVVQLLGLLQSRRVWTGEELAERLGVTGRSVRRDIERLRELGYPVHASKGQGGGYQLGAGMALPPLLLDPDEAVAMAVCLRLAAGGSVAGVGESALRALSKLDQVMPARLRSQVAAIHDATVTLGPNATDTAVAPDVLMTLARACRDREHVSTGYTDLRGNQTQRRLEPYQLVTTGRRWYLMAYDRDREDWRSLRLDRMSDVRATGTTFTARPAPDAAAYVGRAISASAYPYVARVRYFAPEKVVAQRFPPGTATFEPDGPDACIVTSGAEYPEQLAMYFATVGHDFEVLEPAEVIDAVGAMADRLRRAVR

TGACCCACCCTGACAGGCATATAGGACAGTTCCGGTCCTAAAAGTGCGGCAGACTTGTCG (double strand) [msmeg_1357-56 promoter]
binding result [1]: no binding

GACAGGCATAGCATGGCTTTCGCAAGGCTAAAGTGCGGCAGACTTGTCGC / GCGACAAGTCTGCCGCACTTTAGCCTTGCGAAAGCCATGCTATGCCTGT [scrambled palindrome]
binding result [2]: binds more weakly

The exact form of at least one protein or probe is not confirmed. For some assays here: No signal at the amounts used counts as a negative. For some assays here: The comparison behind a weaker result is the experiment's own reference, which may not be listed here. For some assays here: Tags and fusion partners may be left off the protein sequences shown.
